Like-named read-outs stand apart in the source and are kept apart here. No constants are given. Whether binding was seen depends on the method and setting. In cells and extracts the contact can be indirect. Some binding calls cover weakened binding; strength is not graded here.
Assays:
[1] = target: VapC12[F1,2], M-PFC bait fusion (M. tuberculosis) (UniProt P9WFA3); test: split reporter
[2] = target: VapC12[F1,2], M-PFC bait fusion (M. tuberculosis) (UniProt P9WFA3); test: split reporter; remark: listed apart in the source

VapB12[F3], M-PFC prey fusion (from UniProt P9WJ53 1-75)
binding [1]: binds | binding [2]: binds

Reference: publication doi:10.1101/2025.10.10.681325
